# From the supplement of paper PMC4604168 (melanoma cell lines)
# The list shows a part of the results. Single values are uncertain, as repeats are few or missing.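 Cells were imaged in 1,536-well plates, and nuclei stained with an antibody against cleaved PARP were counted against all DNA-stained nuclei to give the apoptosis fraction. Screening doses were chosen to leave most cells alive, and resting and induced cleaved-PARP levels differ strongly between cell lines.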
# Experiments:
# Assay in all cases: cleaved PARP positive nuclei fraction relative to DMSO control; melanoma cells; higher = more apoptosis
# Details in all cases: library dose: low library concentration; 72 h
# [1] = tested on: 501Mel
# [2] = tested on: A101D
# [3] = tested on: A2058
# [4] = tested on: A375
# [5] = tested on: C32
# [6] = tested on: CBRC008 (line from a melanoma biopsy)
# [7] = tested on: CBRC014 (line from a melanoma biopsy)
# [8] = tested on: CBRC016 (line from a melanoma biopsy)
# [9] = tested on: CBRC017 (line from a melanoma biopsy)
# [10] = tested on: CBRC034 (line from a melanoma biopsy)
# [11] = tested on: COLO792
# [12] = tested on: COLO800
# [13] = tested on: COLO829
# [14] = tested on: G361
# [15] = tested on: IPC-298
# [16] = tested on: IST-MEL1
# [17] = tested on: LB2518-MEL
# [18] = tested on: LOXIMVI
# [19] = tested on: MEL-HO
SMILES,cleaved PARP positive nuclei fraction [1] [%],cleaved PARP positive nuclei fraction [2] [%],cleaved PARP positive nuclei fraction [3] [%],cleaved PARP positive nuclei fraction [4] [%],cleaved PARP positive nuclei fraction [5] [%],cleaved PARP positive nuclei fraction [6] [%],cleaved PARP positive nuclei fraction [7] [%],cleaved PARP positive nuclei fraction [8] [%],cleaved PARP positive nuclei fraction [9] [%],cleaved PARP positive nuclei fraction [10] [%],cleaved PARP positive nuclei fraction [11] [%],cleaved PARP positive nuclei fraction [12] [%],cleaved PARP positive nuclei fraction [13] [%],cleaved PARP positive nuclei fraction [14] [%],cleaved PARP positive nuclei fraction [15] [%],cleaved PARP positive nuclei fraction [16] [%],cleaved PARP positive nuclei fraction [17] [%],cleaved PARP positive nuclei fraction [18] [%],cleaved PARP positive nuclei fraction [19] [%]
"Cn1sc(=O)n(Cc2ccccc2)c1=O + C#Cc1cccc(Nc2ncnc3cc(OCCOC)c(OCCOC)cc23)c1 [erlotinib] (first compound 0.4 µM, partner dose 0.8 µM)",64.6,89.4,57.8,344,186,88.9,86.9,65.8,72.9,128,162,136,191,172,120,41.2,110,79.6,74.9
"Cn1sc(=O)n(Cc2ccccc2)c1=O + NC1(c2ccc(-c3nc4ccn5c(=O)[nH]nc5c4cc3-c3ccccc3)cc2)CCC1 [MK2206] (first compound 0.4 µM, partner dose 0.4 µM)",96.2,99.7,153,53,71.9,88.4,97.5,119,104,134,141,166,114,93.6,46.8,121,209,114,49.4
"NC1(c2ccc(-c3nc4ccn5c(=O)[nH]nc5c4cc3-c3ccccc3)cc2)CCC1 + CC(C)C[C@H](NC(=O)[C@H](Cc1ccccc1)NC(=O)c1cnccn1)B(O)O [Bortezomib] (first compound 0.4 µM, partner dose 0.001 µM)",71.2,557,112,138,176,336,100,124,72.8,46.4,164,118,110,294,95.4,100,148,152,144
"C[C@@H](N)c1ccc(C(=O)Nc2ccnc3[nH]ccc23)cc1 + Nc1ccn([C@@H]2O[C@H](CO)[C@@H](O)C2(F)F)c(=O)n1 [gemcitabine] (first compound 0.4 µM, partner dose 0.0004 µM)",56.3,96.5,87.4,125,107,71.3,154,158,110,217,277,80.1,96.1,104,88.8,125,186,119,127
"C[C@]1(O)C[C@@H](c2nc(-c3ccc4ccc(-c5ccccc5)nc4c3)c3c(N)nccn32)C1 + Cn1c(Nc2ccc(C(F)(F)F)cc2)nc2cc(Oc3ccnc(-c4ncc(C(F)(F)F)[nH]4)c3)ccc21 [CHIR265] (first compound 0.4 µM, partner dose 0.08 µM)",180,153,111,1730,86.1,310,155,159,128,201,258,124,127,360,82,31.8,448,95.5,197
